Reference: the supplement of paper PMC10849652
This is one part of the list.

Sequences of proteins named here, by UniProt entry; tags and fusion partners are left off. A change or cut given only in a name is not applied to a line headed by its entry.
UniProt Q6UW78: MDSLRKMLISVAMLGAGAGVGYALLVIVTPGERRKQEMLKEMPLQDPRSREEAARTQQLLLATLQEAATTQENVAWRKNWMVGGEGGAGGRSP
UniProt Q9BTM9: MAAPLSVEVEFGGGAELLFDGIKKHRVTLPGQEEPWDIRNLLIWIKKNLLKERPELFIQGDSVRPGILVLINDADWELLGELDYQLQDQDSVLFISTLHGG
UniProt Q9BQ65: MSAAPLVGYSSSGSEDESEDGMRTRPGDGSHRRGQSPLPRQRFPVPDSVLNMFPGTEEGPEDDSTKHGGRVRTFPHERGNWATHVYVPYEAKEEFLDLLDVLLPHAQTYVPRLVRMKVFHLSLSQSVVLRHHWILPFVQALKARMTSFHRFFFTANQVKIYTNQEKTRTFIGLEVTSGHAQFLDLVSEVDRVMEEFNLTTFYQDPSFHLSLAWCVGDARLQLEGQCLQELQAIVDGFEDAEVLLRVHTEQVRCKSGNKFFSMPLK
UniProt P62068, whole entry, looked up: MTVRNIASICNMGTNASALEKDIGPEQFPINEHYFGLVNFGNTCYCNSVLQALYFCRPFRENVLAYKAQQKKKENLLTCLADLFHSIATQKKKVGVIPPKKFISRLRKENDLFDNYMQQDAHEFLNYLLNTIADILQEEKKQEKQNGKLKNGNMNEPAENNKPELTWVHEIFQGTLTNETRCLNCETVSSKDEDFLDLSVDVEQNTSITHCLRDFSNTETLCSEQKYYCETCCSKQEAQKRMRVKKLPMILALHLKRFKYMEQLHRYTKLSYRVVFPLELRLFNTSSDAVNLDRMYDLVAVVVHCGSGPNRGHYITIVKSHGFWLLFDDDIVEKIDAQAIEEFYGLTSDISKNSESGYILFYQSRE
UniProt P46939: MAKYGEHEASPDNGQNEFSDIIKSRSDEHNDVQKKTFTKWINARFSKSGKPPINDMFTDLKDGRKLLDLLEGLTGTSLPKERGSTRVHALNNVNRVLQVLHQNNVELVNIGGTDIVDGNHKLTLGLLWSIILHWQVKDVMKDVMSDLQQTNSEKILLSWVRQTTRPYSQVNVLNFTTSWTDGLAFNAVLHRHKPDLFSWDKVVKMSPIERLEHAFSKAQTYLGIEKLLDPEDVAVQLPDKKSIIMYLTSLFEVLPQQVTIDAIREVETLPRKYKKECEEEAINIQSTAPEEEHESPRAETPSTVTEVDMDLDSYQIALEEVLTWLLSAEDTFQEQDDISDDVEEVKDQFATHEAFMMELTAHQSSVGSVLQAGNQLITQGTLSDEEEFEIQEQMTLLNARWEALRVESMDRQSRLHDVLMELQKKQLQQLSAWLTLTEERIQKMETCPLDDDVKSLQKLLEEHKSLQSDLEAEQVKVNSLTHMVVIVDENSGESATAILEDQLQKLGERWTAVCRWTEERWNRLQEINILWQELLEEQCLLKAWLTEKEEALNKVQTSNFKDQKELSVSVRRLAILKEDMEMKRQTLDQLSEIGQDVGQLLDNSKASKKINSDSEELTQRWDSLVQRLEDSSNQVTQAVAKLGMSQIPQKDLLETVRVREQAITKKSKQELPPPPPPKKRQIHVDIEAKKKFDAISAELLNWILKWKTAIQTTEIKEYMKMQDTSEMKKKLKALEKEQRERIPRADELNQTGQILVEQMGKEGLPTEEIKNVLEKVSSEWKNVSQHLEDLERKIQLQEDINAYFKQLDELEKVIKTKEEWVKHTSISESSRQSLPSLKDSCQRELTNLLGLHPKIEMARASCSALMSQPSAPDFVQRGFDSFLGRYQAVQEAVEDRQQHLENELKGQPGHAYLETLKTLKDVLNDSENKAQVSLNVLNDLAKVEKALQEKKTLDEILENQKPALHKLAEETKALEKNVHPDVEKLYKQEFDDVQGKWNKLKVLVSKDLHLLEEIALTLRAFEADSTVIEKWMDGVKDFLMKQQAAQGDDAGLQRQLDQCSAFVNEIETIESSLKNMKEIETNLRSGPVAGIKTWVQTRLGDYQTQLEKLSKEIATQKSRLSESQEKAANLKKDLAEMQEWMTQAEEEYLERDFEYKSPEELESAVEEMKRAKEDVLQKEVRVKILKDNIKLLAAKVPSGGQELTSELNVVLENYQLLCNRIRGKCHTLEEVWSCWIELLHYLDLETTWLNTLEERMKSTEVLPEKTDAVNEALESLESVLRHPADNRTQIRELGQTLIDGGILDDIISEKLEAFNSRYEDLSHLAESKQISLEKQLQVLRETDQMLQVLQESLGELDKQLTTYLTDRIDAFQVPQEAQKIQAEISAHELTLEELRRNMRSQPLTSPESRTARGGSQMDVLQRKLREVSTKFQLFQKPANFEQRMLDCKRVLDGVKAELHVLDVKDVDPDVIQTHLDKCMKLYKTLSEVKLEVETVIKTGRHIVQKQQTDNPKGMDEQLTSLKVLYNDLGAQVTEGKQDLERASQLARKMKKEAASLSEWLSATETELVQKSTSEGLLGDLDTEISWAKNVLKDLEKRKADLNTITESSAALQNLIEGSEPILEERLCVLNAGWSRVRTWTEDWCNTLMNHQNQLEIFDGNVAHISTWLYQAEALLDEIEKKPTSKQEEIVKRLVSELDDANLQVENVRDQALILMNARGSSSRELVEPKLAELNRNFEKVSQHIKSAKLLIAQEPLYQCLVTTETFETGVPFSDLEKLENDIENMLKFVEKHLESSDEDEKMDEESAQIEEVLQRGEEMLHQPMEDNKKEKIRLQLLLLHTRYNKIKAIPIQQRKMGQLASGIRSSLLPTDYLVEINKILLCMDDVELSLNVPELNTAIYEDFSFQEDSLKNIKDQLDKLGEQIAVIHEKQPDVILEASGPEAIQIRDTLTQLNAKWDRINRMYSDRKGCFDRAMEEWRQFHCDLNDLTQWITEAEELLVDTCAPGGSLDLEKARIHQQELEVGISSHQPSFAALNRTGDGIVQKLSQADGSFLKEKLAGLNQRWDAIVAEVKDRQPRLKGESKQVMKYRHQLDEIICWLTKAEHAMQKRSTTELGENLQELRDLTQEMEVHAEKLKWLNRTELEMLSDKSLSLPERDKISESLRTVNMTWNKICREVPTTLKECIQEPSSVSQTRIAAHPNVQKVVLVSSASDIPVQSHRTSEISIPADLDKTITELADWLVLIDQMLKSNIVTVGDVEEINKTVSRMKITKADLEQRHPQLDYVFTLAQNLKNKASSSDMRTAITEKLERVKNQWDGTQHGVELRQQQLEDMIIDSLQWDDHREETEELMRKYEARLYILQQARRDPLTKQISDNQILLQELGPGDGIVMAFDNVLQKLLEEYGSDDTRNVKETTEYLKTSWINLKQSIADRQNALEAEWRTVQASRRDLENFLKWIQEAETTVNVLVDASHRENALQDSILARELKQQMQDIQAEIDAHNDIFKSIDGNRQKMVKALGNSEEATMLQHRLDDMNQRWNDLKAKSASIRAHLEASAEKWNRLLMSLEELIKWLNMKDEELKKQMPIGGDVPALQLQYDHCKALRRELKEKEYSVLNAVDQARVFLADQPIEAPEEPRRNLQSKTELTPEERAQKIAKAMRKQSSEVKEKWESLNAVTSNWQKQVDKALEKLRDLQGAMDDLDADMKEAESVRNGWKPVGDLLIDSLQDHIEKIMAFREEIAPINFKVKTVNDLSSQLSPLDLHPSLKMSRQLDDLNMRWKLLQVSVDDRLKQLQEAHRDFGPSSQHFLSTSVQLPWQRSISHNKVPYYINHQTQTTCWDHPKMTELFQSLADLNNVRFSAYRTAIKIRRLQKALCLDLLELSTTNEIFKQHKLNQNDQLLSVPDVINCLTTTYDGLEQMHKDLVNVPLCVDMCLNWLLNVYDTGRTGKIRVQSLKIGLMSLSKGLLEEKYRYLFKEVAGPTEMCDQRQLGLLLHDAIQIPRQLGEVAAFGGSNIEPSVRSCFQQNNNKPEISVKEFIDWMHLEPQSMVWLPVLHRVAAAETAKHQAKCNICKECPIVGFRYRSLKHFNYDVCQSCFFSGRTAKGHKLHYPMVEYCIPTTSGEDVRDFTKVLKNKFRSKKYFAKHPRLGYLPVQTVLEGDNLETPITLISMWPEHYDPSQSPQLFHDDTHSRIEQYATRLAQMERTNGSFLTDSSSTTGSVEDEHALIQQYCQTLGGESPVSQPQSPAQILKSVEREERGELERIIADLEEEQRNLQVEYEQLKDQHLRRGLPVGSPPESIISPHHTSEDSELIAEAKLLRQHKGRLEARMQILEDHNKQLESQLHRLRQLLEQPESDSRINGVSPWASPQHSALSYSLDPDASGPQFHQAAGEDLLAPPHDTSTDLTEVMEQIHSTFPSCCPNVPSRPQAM
UniProt O14795: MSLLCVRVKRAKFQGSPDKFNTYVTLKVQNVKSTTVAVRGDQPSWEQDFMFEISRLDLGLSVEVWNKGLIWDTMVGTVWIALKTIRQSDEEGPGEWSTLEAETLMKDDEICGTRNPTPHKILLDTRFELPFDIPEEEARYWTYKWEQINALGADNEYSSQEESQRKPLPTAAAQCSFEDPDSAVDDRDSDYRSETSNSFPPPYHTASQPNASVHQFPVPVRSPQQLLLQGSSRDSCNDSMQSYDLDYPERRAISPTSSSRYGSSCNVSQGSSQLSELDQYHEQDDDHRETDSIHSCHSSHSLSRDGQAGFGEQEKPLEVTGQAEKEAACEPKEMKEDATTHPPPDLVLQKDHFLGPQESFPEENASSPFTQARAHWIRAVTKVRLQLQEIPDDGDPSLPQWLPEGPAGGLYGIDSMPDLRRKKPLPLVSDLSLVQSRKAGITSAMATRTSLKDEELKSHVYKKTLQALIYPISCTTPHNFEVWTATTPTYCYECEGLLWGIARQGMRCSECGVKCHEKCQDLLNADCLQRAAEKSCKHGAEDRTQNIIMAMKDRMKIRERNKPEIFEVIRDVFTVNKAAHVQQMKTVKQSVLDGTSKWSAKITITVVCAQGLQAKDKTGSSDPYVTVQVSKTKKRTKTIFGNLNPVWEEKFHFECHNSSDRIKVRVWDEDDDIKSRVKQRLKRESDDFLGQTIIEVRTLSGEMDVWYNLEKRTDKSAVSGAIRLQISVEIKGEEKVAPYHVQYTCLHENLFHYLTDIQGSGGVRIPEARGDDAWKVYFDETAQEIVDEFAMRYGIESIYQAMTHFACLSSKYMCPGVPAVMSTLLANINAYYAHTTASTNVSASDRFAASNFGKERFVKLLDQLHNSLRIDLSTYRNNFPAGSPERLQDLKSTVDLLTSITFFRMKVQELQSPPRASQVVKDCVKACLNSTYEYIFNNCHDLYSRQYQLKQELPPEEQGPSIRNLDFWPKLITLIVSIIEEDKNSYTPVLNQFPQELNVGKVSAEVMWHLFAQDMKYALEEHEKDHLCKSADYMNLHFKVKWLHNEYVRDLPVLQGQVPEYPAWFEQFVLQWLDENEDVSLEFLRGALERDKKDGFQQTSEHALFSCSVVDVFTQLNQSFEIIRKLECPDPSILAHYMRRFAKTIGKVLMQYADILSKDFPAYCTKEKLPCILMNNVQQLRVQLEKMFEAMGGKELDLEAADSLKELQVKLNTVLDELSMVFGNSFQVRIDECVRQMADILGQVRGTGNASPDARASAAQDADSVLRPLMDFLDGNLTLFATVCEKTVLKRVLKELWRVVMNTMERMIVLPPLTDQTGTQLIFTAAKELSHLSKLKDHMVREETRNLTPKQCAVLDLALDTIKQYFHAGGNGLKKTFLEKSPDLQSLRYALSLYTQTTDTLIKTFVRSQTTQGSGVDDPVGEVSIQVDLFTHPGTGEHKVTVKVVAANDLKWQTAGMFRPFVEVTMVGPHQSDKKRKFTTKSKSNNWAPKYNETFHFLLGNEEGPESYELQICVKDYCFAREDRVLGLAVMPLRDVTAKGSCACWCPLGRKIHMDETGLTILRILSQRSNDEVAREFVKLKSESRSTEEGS
UniProt O75317, whole entry, looked up: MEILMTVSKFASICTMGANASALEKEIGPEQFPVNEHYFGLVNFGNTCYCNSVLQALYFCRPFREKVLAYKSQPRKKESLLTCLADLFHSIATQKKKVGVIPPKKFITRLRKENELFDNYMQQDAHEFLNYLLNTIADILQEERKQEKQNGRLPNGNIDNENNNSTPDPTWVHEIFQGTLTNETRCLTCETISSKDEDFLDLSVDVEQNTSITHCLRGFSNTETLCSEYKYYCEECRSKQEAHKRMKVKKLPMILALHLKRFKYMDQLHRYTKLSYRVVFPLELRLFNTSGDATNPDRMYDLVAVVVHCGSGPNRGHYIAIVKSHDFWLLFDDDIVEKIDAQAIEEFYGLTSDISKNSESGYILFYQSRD
UniProt C9J7I0: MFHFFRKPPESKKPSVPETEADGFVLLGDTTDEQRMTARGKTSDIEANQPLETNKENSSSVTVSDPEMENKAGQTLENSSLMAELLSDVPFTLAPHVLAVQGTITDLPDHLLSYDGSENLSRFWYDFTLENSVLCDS
UniProt P40337, whole entry, looked up: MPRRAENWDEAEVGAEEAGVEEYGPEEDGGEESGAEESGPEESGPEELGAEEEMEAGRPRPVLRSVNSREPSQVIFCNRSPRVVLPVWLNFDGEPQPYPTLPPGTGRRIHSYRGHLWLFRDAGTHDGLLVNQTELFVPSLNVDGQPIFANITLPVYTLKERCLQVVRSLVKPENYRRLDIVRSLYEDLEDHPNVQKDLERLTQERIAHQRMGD

Key:
Assay in all cases: log2 fold change, soluble protein after heating vs DMSO (PISA); higher = thermal stabilisation; K562 lysate, 10 uM; active = over 0.2 and 3.5 SD of the protein, either way, in both replicates (recomputed)
[1] = compound: CS(=O)(=O)CCNCc1ccc(-c2ccc3ncnc(Nc4ccc(OCc5cccc(F)c5)c(Cl)c4)c3c2)o1 [lapatinib]
Outline: (§1)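 Log-two fold change in thermal stability relative to solvent controls is reported from duplicates. For each sample, crude K562 extract from dounce-homogenised pellets in PBS pH 7.4 with 1 mM MgCl2, at 1 mg/mL protein, was treated with 10 μM compound for 30 min. Aliquots heated for 3 min across 48°C-58°C were pooled, brought to 0.5% NP-40 at 4°C and cleared at 21,000xg for 90 min. The supernatant was quantified by TMTpro 16plex LC-MS/MS with channel sums equalised.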

[2] = compound: CS(=O)(=O)N1CCN(Cc2cc3nc(-c4cccc5[nH]ncc45)nc(N4CCOCC4)c3s2)CC1 [pictilisib]
Outline: as §1

[3] = compound: C[C@H](C1=CC=C(C=C1)C(=O)NC2=C3C=CNC3=NC=C2)N
Outline: as §1

[4] = compound: C[C@H](Nc1ncnc2nc[nH]c12)c1cc2cccc(Cl)c2c(=O)n1-c1ccccc1 [duvelisib]
Outline: as §1

[5] = compound: Cc1cc(Nc2cc(CN3CCOCC3)c3nc(C)c(Cc4ccc(Cl)cc4F)n3n2)n[nH]1 [gandotinib]
Outline: as §1

[6] = compound: Cc1cc(Nc2cc(N3CCN(C)CC3)nc(Sc3ccc(NC(=O)C4CC4)cc3)n2)n[nH]1 [tozasertib]
Outline: as §1

[7] = compound: Cc1ccc(NC(=O)c2ccc(CN3CC[C@H](N(C)C)C3)c(C(F)(F)F)c2)cc1Nc1nccc(-c2cncnc2)n1 [bafetinib]
Outline: as §1

[8] = compound: Cc1cccc(CC(=O)N2CCc3c2ccc(-c2cn(C)c4ncnc(N)c24)c3F)n1
Outline: as §1

[9] = compound: Cc1nc(Nc2ncc(C(=O)Nc3c(C)cccc3Cl)s2)cc(N2CCN(CCO)CC2)n1 [dasatinib]
Outline: as §1

[10] = compound: Cn1cc(-c2ccc3c(c2)CCN3C(=O)Cc2cccc(C(F)(F)F)c2)c2c(N)ncnc21
Outline: as §1

[11] = compound: NC(=O)c1cnc(N[C@@H]2CCCC[C@@H]2N)nc1Nc1cccc(-n2nccn2)c1
Outline: as §1

[12] = compound: NC1(c2ccc(-c3nc4ccn5c(=O)[nH]nc5c4cc3-c3ccccc3)cc2)CCC1
Outline: as §1

[13] = compound: C[C@@H](Oc1cc(-c2cnn(C3CCNCC3)c2)cnc1N)c1c(Cl)ccc(F)c1Cl [crizotinib]
Outline: as §1

[14] = compound: Cc1ccc(-n2nc(C(C)(C)C)cc2NC(=O)Nc2ccc(OCCN3CCOCC3)c3ccccc23)cc1 [doramapimod]
Outline: as §1

[15] = compound: Cn1cc(CNCC2CCN(c3ncc(C(=O)NO)cn3)CC2)c2ccccc21 [quisinostat]
Outline: as §1

[16] = compound: NC(=O)Nc1cc(-c2cccc(F)c2)sc1C(=O)N[C@H]1CCCNC1
Outline: as §1

[17] = compound: Cc1cn(-c2cc(NC(=O)c3ccc(C)c(Nc4nccc(-c5cccnc5)n4)c3)cc(C(F)(F)F)c2)cn1 [nilotinib]
Outline: as §1

[18] = compound: Cc1nc(Nc2n[nH]c3c2CN(C(=O)N[C@H](CN(C)C)c2ccccc2)C3(C)C)c2sccc2n1
Outline: as §1

[19] = compound: Cc1ncc(-c2ccnc(Nc3ccc(S(C)(=O)=O)cc3)n2)n1C(C)C
Outline: as §1

[20] = compound: Cn1cncc1[C@@](N)(c1ccc(Cl)cc1)c1ccc2c(c1)c(-c1cccc(Cl)c1)cc(=O)n2C [tipifarnib]
Outline: as §1

| Target | log2 fold change [1] | log2 fold change [2] | log2 fold change [3] | log2 fold change [4] | log2 fold change [5] | log2 fold change [6] | log2 fold change [7] | log2 fold change [8] | log2 fold change [9] | log2 fold change [10] | log2 fold change [11] | log2 fold change [12] | log2 fold change [13] | log2 fold change [14] | log2 fold change [15] | log2 fold change [16] | log2 fold change [17] | log2 fold change [18] | log2 fold change [19] | log2 fold change [20] |
| --- | --- | --- | --- | --- | --- | --- | --- | --- | --- | --- | --- | --- | --- | --- | --- | --- | --- | --- | --- | --- |
| UQCC3 (UniProt Q6UW78) | inactive: 0.22 | inactive: -0.046 | inactive: 0.356 | inactive: 0.029 | inactive: 0.137 | inactive: 0.149 | inactive: -0.129 | inactive: 0.036 | inactive: 0.145 | inactive: -0.011 | inactive: -0.104 | inactive: -0.182 | – | – | – | – | – | – | – | – |
| UTP23 (UniProt Q9BRU9) | inactive: -0.041 | inactive: -0.052 | inactive: 0.02 | inactive: -0.025 | inactive: -0.09 | – | inactive: 0.083 | inactive: 0.032 | inactive: 0.084 | inactive: 0.07 | inactive: 0.02 | inactive: 0.112 | inactive: 0.002 | inactive: 0.031 | inactive: -0.078 | inactive: 0.041 | – | – | – | – |
| UTP4 (UniProt Q969X6) | inactive: 0.03 | inactive: 0.028 | inactive: 0.007 | inactive: 0.003 | inactive: -0.033 | inactive: 0.039 | inactive: 0.027 | inactive: 0.003 | inactive: -0.016 | inactive: -0.003 | inactive: -0.018 | inactive: -0.009 | inactive: 0.046 | inactive: -0.054 | inactive: 0.013 | inactive: 0.048 | inactive: 0.006 | inactive: -0.08 | inactive: -0.04 | inactive: 0.045 |
| VDAC2 (UniProt Q5JSD1) | inactive: 0.008 | inactive: -0.024 | inactive: 0.076 | inactive: -0.006 | inactive: -0.023 | inactive: -0.101 | inactive: 0.011 | inactive: -0.144 | inactive: 0.048 | inactive: -0.106 | inactive: -0.066 | inactive: 0.037 | inactive: -0.033 | inactive: -0.143 | inactive: -0.043 | inactive: -0.023 | inactive: 0.005 | inactive: 0.012 | inactive: 0.06 | inactive: -0.114 |
| VANGL2 (UniProt Q9ULK5) | inactive: -0.071 | inactive: -0.063 | inactive: 0.024 | inactive: 0.1 | inactive: 0.095 | – | inactive: -0.139 | inactive: 0.054 | inactive: -0.049 | inactive: 0.094 | inactive: 0.061 | inactive: -0.235 | inactive: -0.362 | inactive: 0.016 | inactive: -0.489 | inactive: 0.128 | – | – | – | – |
| USF3 (UniProt Q68DE3) | inactive: -0.058 | inactive: -0.058 | – | – | – | inactive: 0.146 | inactive: -0.358 | – | – | – | inactive: 0.102 | inactive: -0.082 | – | – | – | – | – | – | – | – |
| URM1 isoform 2 (UniProt Q9BTM9) | inactive: 0.023 | inactive: 0.166 | inactive: 0.181 | inactive: -0.013 | inactive: -0.03 | inactive: 0.158 | inactive: 0.208 | inactive: -0.037 | inactive: -0.026 | inactive: 0.044 | inactive: 0.028 | inactive: -0.066 | – | – | – | – | inactive: 0.03 | inactive: 0.037 | inactive: 0.15 | inactive: -0.044 |
| USB1 (UniProt Q9BQ65) | inactive: 0.092 | – | inactive: 0.28 | inactive: -0.02 | inactive: -0.292 | inactive: 0.056 | – | inactive: -0.014 | inactive: -0.03 | inactive: -0.022 | inactive: -0.172 | inactive: 0.093 | inactive: -0.05 | inactive: 0.195 | inactive: -0.094 | inactive: -0.034 | inactive: 0.122 | inactive: -0.067 | inactive: -0.081 | inactive: 0.001 |
| USP46 (UniProt P62068) | inactive: -0.198 | inactive: -0.18 | – | – | – | – | inactive: -0.147 | – | – | – | inactive: 0.061 | – | inactive: -0.024 | inactive: 0.009 | inactive: -0.173 | inactive: 0.1 | – | – | – | – |
| USP48 (UniProt Q86UV5) | inactive: -0.05 | inactive: 0.037 | active: -0.577 | inactive: -0.022 | inactive: 0.068 | inactive: 0.035 | inactive: -0.134 | inactive: 0.182 | inactive: -0.016 | inactive: 0.005 | inactive: 0.005 | inactive: -0.012 | inactive: 0.13 | inactive: -0.181 | inactive: 0.19 | inactive: -0.077 | inactive: -0.016 | inactive: -0.045 | inactive: -0.032 | inactive: 0.033 |
| UTRN isoform 2 (UniProt P46939) | – | inactive: 0.01 | inactive: -0.009 | – | inactive: 0.04 | inactive: -0.077 | inactive: -0.175 | inactive: -0.018 | – | – | – | inactive: 0.21 | – | – | – | – | – | – | – | – |
| UNC13B isoform 2 (UniProt O14795) | inactive: -0.111 | – | – | inactive: -0.064 | – | inactive: 0.037 | – | – | inactive: -0.089 | inactive: 0.102 | inactive: -0.068 | inactive: 0.021 | inactive: 0 | inactive: 0.07 | inactive: -0.033 | inactive: 0.011 | inactive: 0.053 | inactive: 0.088 | inactive: -0.109 | inactive: 0.152 |
| USP12 (UniProt O75317) | inactive: -0.072 | – | inactive: -0.067 | – | inactive: 0.096 | inactive: -0.082 | – | inactive: 0.093 | – | – | inactive: -0.146 | inactive: 0.087 | inactive: -0.054 | inactive: 0.198 | inactive: -0.199 | inactive: -0.002 | inactive: 0.204 | inactive: 0.072 | inactive: 0.076 | inactive: -0.077 |
| USP33 (UniProt Q8TEY7) | – | – | inactive: -0.362 | inactive: 0.227 | inactive: -0.237 | – | – | inactive: 0.15 | inactive: -0.194 | inactive: 0.143 | – | – | inactive: -0.476 | inactive: 0.182 | inactive: 0 | inactive: -0.078 | inactive: 0.123 | inactive: -0.047 | inactive: -0.172 | inactive: -0.287 |
| UMAD1 (UniProt C9J7I0) | inactive: 0.198 | – | inactive: 0.178 | inactive: 0.05 | inactive: -0.157 | – | – | inactive: 0.055 | inactive: 0.043 | inactive: -0.08 | inactive: -0.199 | – | inactive: 0.082 | inactive: 0.017 | inactive: 0.036 | inactive: -0.037 | inactive: -0.076 | inactive: -0.011 | inactive: 0.471 | inactive: 0.08 |
| VHL (UniProt P40337) | – | inactive: -0.003 | active: -0.538 | inactive: 0.148 | inactive: -0.08 | inactive: 0 | inactive: 0.092 | inactive: -0.021 | inactive: 0 | inactive: 0.079 | – | inactive: 0.04 | inactive: 0.017 | inactive: -0.011 | inactive: -0.056 | inactive: 0.077 | inactive: -0.01 | inactive: 0.04 | inactive: -0.056 | inactive: 0.022 |

Single records, as listed above. Order of values: log2 fold change [1]	log2 fold change [2]	log2 fold change [3]	log2 fold change [4]	log2 fold change [5]	log2 fold change [6]	log2 fold change [7]	log2 fold change [8]	log2 fold change [9]	log2 fold change [10]	log2 fold change [11]	log2 fold change [12]	log2 fold change [13]	log2 fold change [14]	log2 fold change [15]	log2 fold change [16]	log2 fold change [17]	log2 fold change [18]	log2 fold change [19]	log2 fold change [20]
UTP4 (UniProt Q969X6) is listed as inactive: 0.03	inactive: 0.028	inactive: 0.007	inactive: 0.003	inactive: -0.033	inactive: 0.039	inactive: 0.027	inactive: 0.003	inactive: -0.016	inactive: -0.003	inactive: -0.018	inactive: -0.009	inactive: 0.046	inactive: -0.054	inactive: 0.013	inactive: 0.048	inactive: 0.006	inactive: -0.08	inactive: -0.04	inactive: 0.045
VANGL2 (UniProt Q9ULK5) is listed as inactive: -0.071	inactive: -0.063	inactive: 0.024	inactive: 0.1	inactive: 0.095	–	inactive: -0.139	inactive: 0.054	inactive: -0.049	inactive: 0.094	inactive: 0.061	inactive: -0.235	inactive: -0.362	inactive: 0.016	inactive: -0.489	inactive: 0.128	–	–	–	–
